Values of other authors in patent publication US20250058015A1, “STARCH-BASED SHAPE MEMORY POLYMER HYDROGELS” (Syracuse University, priority 2021, published 2025).
Some results were stated once for a whole list of compounds, not compound by compound.

Test system: mammalian cell growth

SMILES	Concentration inhibiting mammalian cell growth [µM]
O=C(O)C=Cc1ccccc1 [CA, Cinnamic acid]	> 600
O=C(O)/C=C/c1ccc(O)cc1 [PCA, p-coumaric acid]	> 600
